Source: patent US8492347B2, “Peptide for induction of immune tolerance as treatment for systemic lupus erythematosus” (The Regents of the University of California, priority 2007, dated 2013)
Some of these results come from one statement about several compounds together.

Tested on: BWF1 mice
Assay: FACS of CD8+ Foxp3+ T cells in mesenteric nodes and spleen after peptide gavage
Type: in vivo
Details: untreated mice <1%
Protocol: Lastly, we synthesized the D-form of pCons, for the purpose of administering it orally since D-forms are resistant to acid degradation. […] Specifically, studies have been completed in which BWF1 mice were fed 5 days a week out of every 30 days saline, low dose pCons (25 ug), middle dose (100 ug) or high dose (250 ug) by gavage. Both D and L-forms are being studied. Most of those mice were sacrificed to study characteristics of cells in mesenteric lymph nodes and spleens. Observations from these studies are disclosed in the following paragraphs.
First, we observed that CD8+ T cells that express Foxp3 (known to be inhibitory T cells for SLE) were induced in mesenteric nodes and spleen cells by the highest dose (250 ug) of D-peptide and by the middle dose (100 ug) and high dose of L-peptide. Thus the administration of low/middle dose D-peptide and of low dose L-peptide was not effective. Data were obtained by FACS analysis of total node populations, with percent of CD8+ Foxp3+ cells in untreated mice <1%, compared to 3-6% of total CD8+ cells in the effective doses of peptide. These changes are high enough to be clinically significant according to our earlier data with L-peptide given i.v.

Row | Sequence | percent of CD8+ Foxp3+ cells of total CD8+ cells (high dose 250 ug by gavage) | percent of CD8+ Foxp3+ cells of total CD8+ cells (middle dose 100 ug by gavage)
1 | FIEWNKLRFRQGLEW (all D-amino acids; Consensus sequence derived from Mus musculus) [D-pCons] | 3-6% | –
2 | FIEWNKLRFRQGLEW [L-pCons] | – | 3-6%
